Experimental data taken from article PMC6368322.
Results are given in words; binding and its absence hold for the method and conditions named. Binding seen in cells or lysates may run through a third protein. Here binding means that the protein was enriched with, or labelled near, the bait; the list need not be complete. Sequences can lack the tags named with a protein.

Biological target: T1, AtTCTP-GFP (line 35S::AtTCTP-GFP) (Arabidopsis thaliana) (UniProt P31265)
T1 sequence: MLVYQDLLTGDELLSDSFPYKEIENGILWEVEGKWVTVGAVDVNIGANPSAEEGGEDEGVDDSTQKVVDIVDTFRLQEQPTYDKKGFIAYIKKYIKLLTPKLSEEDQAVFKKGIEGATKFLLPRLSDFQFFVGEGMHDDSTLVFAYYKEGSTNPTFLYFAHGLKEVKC
Test: affinity purification with mass spectrometry; anti-GFP immunoprecipitation (uMACS GFP Isolation Kit) from protein extracts of Arabidopsis line 35S::AtTCTP-GFP; Col-0 and 35S::GFP as controls; proteins seen by silver staining of the SDS-PAGE gel

B1: AtCSN4 (endogenous), subunit 4 of the COP9 Signalosome (protein, UniProt Q8L5U0 1-397)
chain: MDEALTNASAIGDQRQKIEQYKLILSSVLSSNDLLQAQRFIDHILSDDVPLVVSRQLLQSFAQELGRLEPETQKEIAQFTLTQIQPRVVSFEEQALVIREKLAGLYESEQEWSKAAQMLSGIDLDSGMRAVDDNFKLSKCIQIARLYLEDDDAVNAEAFINKASFLVSNSQNEVLNLQYKVCYARILDMKRKFLEAALRYYGISQIEQRQIGDEEIDENALEQALSAAVTCTILAGAGPQRSRVLATLYKDERCSKLKIYPILQKVYLERILRRPEIDAFSEELRPHQKASLPDKSTVLDRAMIEHNLLSASKLYTNIRFDELGTLLAIDPRKAEKIAANMIGQDRMRGSIDQEEAVIHFEDDVEELQQWDQQISGLCQALNDILDGMAKKGMSVPV
With B1 the binding was “binds”.
